In this assay the target is Synechocystis sp. PCC 6803 CurT, bacterial two-hybrid fusion (Synechocystis sp. PCC 6803) (UniProt Q55176). Briefly: two-hybrid; split-adenylate-cyclase bacterial two-hybrid (BACTH kit) in E. coli BTH101; bait in pUT18C, prey in pKT25; blue colour on LB agar with ampicillin, kanamycin, 0.1 mM IPTG and X-Gal, 1 day past transformation, 37 °C in the dark; n = 4.

Results are given in words; binding and its absence hold for the method and conditions named. Binding can be weak; no strength is given. Tags and fused reporters may be left off the sequences shown.

Regarding “Synechocystis sp. PCC 6803 ZipN, bacterial two-hybrid fusion (from UniProt Q55559)”, the binding entry is listed as “binds”.

B1: Synechocystis sp. PCC 6803 FtsZ, bacterial two-hybrid fusion (protein, UniProt P73456 1-430)
chain: MTLNNDLPLNNIGFTGSGLNDGTEGLDDLFSSSIVDNEPLEALVETPTFASPSPNLKRDQIVPSNIAKIKVIGVGGGGCNAVNRMIASGVTGIDFWAINTDSQALTNTNAPDCIQIGQKLTRGLGAGGNPAIGQKAAEESRDEIARSLEGTDLVFITAGMGGGTGTGAAPIVAEVAKEMGCLTVGIVTRPFTFEGRRRAKQAEEGINALQSRVDTLIVIPNNQLLSVIPAETPLQEAFRVADDILRQGVQGISDIIIIPGLVNVDFADVRAVMADAGSALMGIGVGSGKSRAKEAATAAISSPLLESSIQGAKGVVFNVTGGTDLTLHEVNVAAEIIYEVVDADANIIFGAVIDDRLQGEMRITVIATGFNGEKEKPQAKTSSKPVLSGPPAGVETVPSTTTPEDPLGEIPMAPELDIPDFLQKRRFPRR
For the molecule B1, the binding result was “binds”.
